The values below are quoted from earlier work in patent publication US20030138375A1, “Individualization of therapy with Alzheimer's disease agents” (priority 2001, published 2003).

Where a name gives a salt, the structure may show the parent alone.

The conditions of data set [1]: in vivo; cited from earlier work.
Data set [2] deals with human plasma proteins. To be noted: concentration range 2-1000 ng/ml; cited from earlier work.

On to `COc1cc2c(cc1OC)C(=O)C(CC1CCN(Cc3ccccc3)CC1)C2` (racemic) [Donepezil, (±)-2,3-dihydro-5,6-dimethoxy-2-[[1-(phenylmethyl)-4-piperidinyl]methyl] -1H-inden-1-onehydrochloride], for which, in data set [1], the “mean apparent plasma clearance (Cl/F)” value was 2.17 mL/min/kg and the “steady state volume of distribution” value is listed as 12 L/kg. Moreover, the “bound to alpha1-125acid glycoprotein” value in data set [2] is on record as “about 21%”.
